This is one part of the list.
What was measured:
Assay in all cases: log2 fold change, soluble protein after heating vs DMSO (PISA); higher = thermal stabilisation; K562 cells, 10 uM, 30 min; active = over 0.2 and 3.5 SD of the protein, either way, in both replicates (recomputed)
[1] = compound: Cn1cc(-c2ccc3c(c2)CCN3C(=O)Cc2cccc(C(F)(F)F)c2)c2c(N)ncnc21
Outline: (§1)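 Soluble protein was quantified by TMTpro 16plex LC-MS/MS after channel sums were equalised. It was obtained as the supernatant after 21,000xg for 90 min from pooled aliquots of K562 cells (2×10^6 cells/mL, 10 μM compound, 30 min) heated for 3 min across 48°C-58°C and extracted in PBS with 0.5% NP-40 at 4°C. Thermal stability values are relative to control samples and come from duplicates. They are given as log2 fold changes.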

The chains behind the UniProt entries cited, without tags or fusion partners. Where a name states a change or a piece, a line headed by the entry shows the natural chain unless it says otherwise.
UniProt Q9NSB8: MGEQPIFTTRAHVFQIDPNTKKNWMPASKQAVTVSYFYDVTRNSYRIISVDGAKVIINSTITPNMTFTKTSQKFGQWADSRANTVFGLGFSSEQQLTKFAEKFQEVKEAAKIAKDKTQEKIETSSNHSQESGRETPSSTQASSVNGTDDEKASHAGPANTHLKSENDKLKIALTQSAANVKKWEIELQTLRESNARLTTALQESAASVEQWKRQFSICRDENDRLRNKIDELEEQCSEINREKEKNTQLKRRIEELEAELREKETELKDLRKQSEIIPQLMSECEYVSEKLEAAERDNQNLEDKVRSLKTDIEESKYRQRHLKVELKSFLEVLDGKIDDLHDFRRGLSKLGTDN
UniProt P17483: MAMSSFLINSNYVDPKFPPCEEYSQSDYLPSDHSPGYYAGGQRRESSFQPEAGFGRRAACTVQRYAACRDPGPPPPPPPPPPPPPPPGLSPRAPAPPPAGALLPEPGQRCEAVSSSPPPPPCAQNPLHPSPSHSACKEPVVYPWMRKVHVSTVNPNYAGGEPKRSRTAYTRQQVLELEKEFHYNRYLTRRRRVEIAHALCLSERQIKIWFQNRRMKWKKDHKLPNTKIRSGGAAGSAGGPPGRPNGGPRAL
UniProt P17482: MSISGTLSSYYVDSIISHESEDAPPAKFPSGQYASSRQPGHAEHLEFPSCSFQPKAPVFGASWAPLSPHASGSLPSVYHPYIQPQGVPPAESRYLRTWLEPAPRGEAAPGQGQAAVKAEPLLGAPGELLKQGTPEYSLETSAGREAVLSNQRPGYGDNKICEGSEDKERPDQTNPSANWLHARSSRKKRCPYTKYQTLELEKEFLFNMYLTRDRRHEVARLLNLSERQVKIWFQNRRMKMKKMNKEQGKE
UniProt Q96EW2: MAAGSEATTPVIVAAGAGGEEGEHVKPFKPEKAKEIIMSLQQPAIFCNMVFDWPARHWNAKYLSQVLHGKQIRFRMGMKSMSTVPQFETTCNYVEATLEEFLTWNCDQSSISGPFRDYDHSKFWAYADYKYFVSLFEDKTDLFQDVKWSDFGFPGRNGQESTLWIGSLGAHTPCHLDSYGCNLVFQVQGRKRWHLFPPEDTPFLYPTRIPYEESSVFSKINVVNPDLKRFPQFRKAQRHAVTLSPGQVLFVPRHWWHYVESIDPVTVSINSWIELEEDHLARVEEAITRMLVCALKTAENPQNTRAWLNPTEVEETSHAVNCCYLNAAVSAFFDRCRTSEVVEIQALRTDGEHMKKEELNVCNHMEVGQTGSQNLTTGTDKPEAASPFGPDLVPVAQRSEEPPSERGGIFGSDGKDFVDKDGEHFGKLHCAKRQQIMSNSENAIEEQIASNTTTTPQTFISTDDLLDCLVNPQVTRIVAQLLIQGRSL
UniProt P04439, whole entry, looked up: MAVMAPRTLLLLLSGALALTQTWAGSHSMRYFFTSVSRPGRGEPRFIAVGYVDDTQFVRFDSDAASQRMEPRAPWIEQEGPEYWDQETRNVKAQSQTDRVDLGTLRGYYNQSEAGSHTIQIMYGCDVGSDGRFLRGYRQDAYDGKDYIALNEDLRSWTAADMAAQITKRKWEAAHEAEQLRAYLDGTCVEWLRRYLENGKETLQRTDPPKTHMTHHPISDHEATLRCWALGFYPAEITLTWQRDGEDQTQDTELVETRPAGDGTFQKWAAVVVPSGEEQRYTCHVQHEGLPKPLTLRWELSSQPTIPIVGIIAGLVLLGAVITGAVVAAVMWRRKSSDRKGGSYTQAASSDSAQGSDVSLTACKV
UniProt Q8IWL3: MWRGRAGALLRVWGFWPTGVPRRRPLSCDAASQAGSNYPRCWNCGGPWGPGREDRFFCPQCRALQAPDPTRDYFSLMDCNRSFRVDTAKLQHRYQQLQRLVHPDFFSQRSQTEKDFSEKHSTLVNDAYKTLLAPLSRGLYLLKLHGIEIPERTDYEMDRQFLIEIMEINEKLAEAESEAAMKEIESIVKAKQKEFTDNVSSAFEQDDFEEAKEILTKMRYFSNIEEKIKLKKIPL
UniProt Q00839, whole entry, looked up: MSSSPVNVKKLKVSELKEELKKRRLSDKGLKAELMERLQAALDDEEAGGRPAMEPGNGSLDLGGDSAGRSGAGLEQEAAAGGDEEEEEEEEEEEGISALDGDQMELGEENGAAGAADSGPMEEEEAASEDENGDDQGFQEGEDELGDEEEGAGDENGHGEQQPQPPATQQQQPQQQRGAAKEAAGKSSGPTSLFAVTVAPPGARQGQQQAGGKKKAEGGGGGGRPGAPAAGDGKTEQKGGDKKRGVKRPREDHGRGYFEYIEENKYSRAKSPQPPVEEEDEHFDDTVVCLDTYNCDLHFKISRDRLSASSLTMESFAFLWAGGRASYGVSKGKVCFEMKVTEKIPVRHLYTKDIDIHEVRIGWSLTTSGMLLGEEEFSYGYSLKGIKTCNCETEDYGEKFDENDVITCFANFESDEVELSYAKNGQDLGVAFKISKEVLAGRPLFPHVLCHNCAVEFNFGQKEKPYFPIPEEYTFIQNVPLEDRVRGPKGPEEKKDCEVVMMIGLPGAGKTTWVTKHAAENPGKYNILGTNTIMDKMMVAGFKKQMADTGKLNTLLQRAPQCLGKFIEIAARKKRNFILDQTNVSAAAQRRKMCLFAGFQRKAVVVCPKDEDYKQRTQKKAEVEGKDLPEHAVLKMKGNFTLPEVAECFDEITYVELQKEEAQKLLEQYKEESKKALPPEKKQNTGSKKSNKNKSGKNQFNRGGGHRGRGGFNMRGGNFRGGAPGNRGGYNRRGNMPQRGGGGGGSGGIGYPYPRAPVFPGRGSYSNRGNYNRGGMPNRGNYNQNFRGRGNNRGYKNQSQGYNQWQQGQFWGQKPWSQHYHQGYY
UniProt Q9UJC3, whole entry, looked up: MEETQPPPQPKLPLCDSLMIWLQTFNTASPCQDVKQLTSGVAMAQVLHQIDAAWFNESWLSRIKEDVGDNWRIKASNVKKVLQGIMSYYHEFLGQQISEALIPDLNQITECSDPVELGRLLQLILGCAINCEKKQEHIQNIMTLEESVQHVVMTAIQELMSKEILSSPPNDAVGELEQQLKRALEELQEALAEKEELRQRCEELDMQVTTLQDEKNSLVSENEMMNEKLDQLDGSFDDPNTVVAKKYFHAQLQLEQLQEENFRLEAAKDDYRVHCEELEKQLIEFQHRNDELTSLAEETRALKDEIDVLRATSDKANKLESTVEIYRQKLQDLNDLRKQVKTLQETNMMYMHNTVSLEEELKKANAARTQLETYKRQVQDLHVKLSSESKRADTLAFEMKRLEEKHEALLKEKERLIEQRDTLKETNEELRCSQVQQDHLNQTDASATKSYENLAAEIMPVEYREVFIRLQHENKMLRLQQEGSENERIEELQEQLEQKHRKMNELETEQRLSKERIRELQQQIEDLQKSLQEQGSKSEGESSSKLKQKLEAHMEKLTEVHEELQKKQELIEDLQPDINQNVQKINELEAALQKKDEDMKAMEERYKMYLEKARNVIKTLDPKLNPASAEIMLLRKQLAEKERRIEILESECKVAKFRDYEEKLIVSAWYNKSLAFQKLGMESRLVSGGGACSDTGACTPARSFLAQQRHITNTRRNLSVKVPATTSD
UniProt Q96FZ2: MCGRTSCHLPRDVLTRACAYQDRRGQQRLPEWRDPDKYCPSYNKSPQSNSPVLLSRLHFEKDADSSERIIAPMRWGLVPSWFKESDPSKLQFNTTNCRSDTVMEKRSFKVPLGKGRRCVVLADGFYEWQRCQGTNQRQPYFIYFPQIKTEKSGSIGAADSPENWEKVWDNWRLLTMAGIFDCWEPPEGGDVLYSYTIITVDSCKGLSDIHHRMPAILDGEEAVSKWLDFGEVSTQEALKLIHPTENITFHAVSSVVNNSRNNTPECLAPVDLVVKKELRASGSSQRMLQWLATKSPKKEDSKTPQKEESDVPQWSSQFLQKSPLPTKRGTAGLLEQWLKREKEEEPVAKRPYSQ
UniProt Q9NSC5: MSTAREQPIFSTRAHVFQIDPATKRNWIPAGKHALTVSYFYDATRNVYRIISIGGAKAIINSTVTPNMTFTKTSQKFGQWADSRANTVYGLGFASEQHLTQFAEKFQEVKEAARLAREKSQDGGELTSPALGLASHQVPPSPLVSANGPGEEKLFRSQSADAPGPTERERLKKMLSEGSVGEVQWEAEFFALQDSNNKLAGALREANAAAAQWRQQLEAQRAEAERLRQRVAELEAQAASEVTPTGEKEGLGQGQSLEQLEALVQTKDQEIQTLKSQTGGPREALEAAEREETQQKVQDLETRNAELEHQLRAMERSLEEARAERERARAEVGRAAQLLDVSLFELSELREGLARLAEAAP
UniProt P41134: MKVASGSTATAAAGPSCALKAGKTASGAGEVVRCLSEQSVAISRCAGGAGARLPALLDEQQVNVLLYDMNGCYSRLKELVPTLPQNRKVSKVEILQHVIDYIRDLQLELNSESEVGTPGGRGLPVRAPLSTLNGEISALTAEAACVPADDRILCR
UniProt P54652, whole entry, looked up: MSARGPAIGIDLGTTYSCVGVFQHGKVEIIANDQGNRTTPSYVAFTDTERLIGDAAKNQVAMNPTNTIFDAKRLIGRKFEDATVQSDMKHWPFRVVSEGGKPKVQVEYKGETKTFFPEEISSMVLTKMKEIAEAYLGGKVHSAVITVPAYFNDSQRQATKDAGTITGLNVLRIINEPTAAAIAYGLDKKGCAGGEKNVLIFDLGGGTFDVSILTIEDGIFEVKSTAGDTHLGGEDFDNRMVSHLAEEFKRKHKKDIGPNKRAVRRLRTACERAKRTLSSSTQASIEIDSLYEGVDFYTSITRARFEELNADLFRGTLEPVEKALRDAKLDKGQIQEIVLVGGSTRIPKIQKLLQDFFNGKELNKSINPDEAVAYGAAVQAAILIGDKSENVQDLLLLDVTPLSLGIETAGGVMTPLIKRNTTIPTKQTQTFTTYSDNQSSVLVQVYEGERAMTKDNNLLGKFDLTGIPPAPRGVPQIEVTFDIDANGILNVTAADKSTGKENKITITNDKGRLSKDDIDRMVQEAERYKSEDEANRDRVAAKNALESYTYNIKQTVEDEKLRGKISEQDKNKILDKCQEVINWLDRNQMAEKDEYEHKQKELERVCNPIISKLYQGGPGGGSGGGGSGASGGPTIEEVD
UniProt Q9UMF0: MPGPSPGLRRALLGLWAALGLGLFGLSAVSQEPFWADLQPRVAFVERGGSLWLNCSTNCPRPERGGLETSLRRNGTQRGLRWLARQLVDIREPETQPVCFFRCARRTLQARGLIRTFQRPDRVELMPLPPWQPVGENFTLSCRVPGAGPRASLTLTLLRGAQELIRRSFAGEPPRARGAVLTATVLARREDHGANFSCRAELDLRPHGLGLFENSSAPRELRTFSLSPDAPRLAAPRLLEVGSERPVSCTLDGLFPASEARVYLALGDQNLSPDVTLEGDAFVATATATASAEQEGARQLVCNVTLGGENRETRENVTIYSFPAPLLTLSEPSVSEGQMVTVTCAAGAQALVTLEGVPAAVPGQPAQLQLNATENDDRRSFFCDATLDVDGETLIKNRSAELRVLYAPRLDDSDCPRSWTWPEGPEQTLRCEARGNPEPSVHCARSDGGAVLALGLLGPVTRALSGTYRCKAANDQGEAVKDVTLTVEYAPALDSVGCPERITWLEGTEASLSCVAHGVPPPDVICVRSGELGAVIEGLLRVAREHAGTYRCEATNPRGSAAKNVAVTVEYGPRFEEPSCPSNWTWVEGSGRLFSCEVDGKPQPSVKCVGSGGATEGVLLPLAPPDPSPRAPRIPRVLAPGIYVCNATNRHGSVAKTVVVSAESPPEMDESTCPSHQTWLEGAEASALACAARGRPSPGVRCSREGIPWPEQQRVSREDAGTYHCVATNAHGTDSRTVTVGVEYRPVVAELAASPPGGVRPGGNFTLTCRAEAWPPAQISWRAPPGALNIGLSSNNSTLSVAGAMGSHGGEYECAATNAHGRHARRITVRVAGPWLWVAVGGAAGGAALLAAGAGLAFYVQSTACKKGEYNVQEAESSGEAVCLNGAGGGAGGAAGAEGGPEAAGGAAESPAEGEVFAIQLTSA
UniProt Q9NWY4: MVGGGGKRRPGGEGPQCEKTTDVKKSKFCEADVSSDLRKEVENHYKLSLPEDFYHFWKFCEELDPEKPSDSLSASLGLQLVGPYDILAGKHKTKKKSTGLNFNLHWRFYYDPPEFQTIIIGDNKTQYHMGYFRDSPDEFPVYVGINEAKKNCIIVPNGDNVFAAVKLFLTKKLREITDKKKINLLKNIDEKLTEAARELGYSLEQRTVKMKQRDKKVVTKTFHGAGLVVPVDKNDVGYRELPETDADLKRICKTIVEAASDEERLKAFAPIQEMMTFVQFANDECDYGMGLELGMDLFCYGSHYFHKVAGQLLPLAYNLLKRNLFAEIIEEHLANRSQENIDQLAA
UniProt O75506: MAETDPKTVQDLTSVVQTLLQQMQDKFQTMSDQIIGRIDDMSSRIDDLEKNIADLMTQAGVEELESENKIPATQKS

mubritinib = compound: FC(F)(F)c1ccc(/C=C/c2nc(COc3ccc(CCCCn4ccnn4)cc3)co2)cc1 [mubritinib]
Outline: as §1

nilotinib = compound: Cc1cn(-c2cc(NC(=O)c3ccc(C)c(Nc4nccc(-c5cccnc5)n4)c3)cc(C(F)(F)F)c2)cn1 [nilotinib]
Outline: as §1

[2] = compound: Cc1nc(Nc2n[nH]c3c2CN(C(=O)N[C@H](CN(C)C)c2ccccc2)C3(C)C)c2sccc2n1
Outline: as §1

[3] = compound: Cc1ncc(-c2ccnc(Nc3ccc(S(C)(=O)=O)cc3)n2)n1C(C)C
Outline: as §1

[4] = compound: Cc1cccc(CC(=O)N2CCc3c2ccc(-c2cn(C)c4ncnc(N)c24)c3F)n1
Outline: as §1

dasatinib = compound: Cc1nc(Nc2ncc(C(=O)Nc3c(C)cccc3Cl)s2)cc(N2CCN(CCO)CC2)n1 [dasatinib]
Outline: as §1

[5] = compound: Cn1cc(-c2ccc3nnc(C(F)(F)c4ccc5ncccc5c4)n3n2)cn1
Outline: as §1

bafetinib = compound: Cc1ccc(NC(=O)c2ccc(CN3CC[C@H](N(C)C)C3)c(C(F)(F)F)c2)cc1Nc1nccc(-c2cncnc2)n1 [bafetinib]
Outline: as §1

tipifarnib = compound: Cn1cncc1[C@@](N)(c1ccc(Cl)cc1)c1ccc2c(c1)c(-c1cccc(Cl)c1)cc(=O)n2C [tipifarnib]
Outline: as §1

Measured: log2 fold change

HOMER2 (UniProt Q9NSB8)
inactive: [1] 0.037 | mubritinib 0.003

HOXB4 (UniProt P17483)
inactive: nilotinib -0.083 | [2] -0.075 | [3] -0.213

HPS4 isoform 4 (UniProt Q9NQG7)
inactive: [4] 0.244 | nilotinib -0.149 | [2] 0.059 | dasatinib -0.394 | [3] -0.03 | [5] 0.157

HOXB9 (UniProt P17482)
inactive: bafetinib -0.146 | nilotinib 0.006 | [2] -0.041 | dasatinib -0.039 | [3] -0.056 | [1] -0.015 | [5] 0.027 | tipifarnib 0.003 | mubritinib 0.048

HSPBAP1 (UniProt Q96EW2)
inactive: [1] -0.173

HLA-A isoform 2 (UniProt P04439)
inactive: dasatinib -0.034 | [1] -0.086

HSCB (UniProt Q8IWL3)
inactive: [4] 0.034 | nilotinib 0.169 | [2] -0.046 | dasatinib -0.059 | [3] 0.005 | [1] 0.07 | [5] -0.069 | tipifarnib -0.023 | mubritinib -0.123

HNRNPU isoform 2 (UniProt Q00839)
inactive: dasatinib 0.034 | tipifarnib 0.053

HOXD9 (UniProt P28356)
inactive: [4] 0.122 | dasatinib -0.082 | [1] 0.179

HOOK1 (UniProt Q9UJC3)
inactive: dasatinib -0.019 | tipifarnib -0.001

HMCES (UniProt Q96FZ2)
inactive: bafetinib -0.091 | nilotinib -0.021 | [2] 0.209 | dasatinib 0.047 | [3] -0.133 | [5] 0.026 | tipifarnib 0.112 | mubritinib -0.32

HOMER3 (UniProt Q9NSC5)
inactive: [1] -0.086 | mubritinib -0.05

HPS1 (UniProt Q92902)
inactive: bafetinib -0.016 | nilotinib -0.002 | [2] -0.03 | [3] 0.026 | [1] 0.058 | [5] -0.312 | tipifarnib 0.057 | mubritinib 0.042

HMGXB4 (UniProt Q9UGU5)
inactive: [1] 0.225 | tipifarnib -0.194

2 neighbouring records already listed, quoted:
HOMER3 (UniProt Q9NSC5)
inactive: [1] -0.086 | mubritinib -0.05

HPS1 (UniProt Q92902)
inactive: bafetinib -0.016 | nilotinib -0.002 | [2] -0.03 | [3] 0.026 | [1] 0.058 | [5] -0.312 | tipifarnib 0.057 | mubritinib 0.042

Following part:

HSP90AB4P (UniProt Q58FF6)
inactive: bafetinib 0.09 | nilotinib -0.262 | [2] -0.052 | dasatinib -0.077 | [3] -0.168 | [1] -0.018 | mubritinib 0.023

ID1 (UniProt P41134)
inactive: bafetinib -0.002 | nilotinib 0.022 | [2] -0.127 | dasatinib -0.295 | [3] 0.045 | [5] 0.169 | mubritinib 0.268

HMBS (UniProt F5H0P4)
inactive: mubritinib -0.35

HMBS (UniProt F5H226)
inactive: bafetinib 0.045 | [4] -0.21 | [1] 0.036 | mubritinib -0.139

ICOSLG isoform 2 (UniProt O75144)
inactive: bafetinib -0.083 | tipifarnib -0.128 | mubritinib -0.037

HSPA2 (UniProt P54652)
inactive: bafetinib -0.08 | nilotinib 0.024 | [2] 0.031 | [3] -0.013 | [5] 0.003 | mubritinib -0.067

ICAM5 (UniProt Q9UMF0)
inactive: bafetinib -0.109 | nilotinib -0.094 | [2] -0.023 | dasatinib 0.017 | [3] 0.047 | [1] 0.064 | [5] -0.227 | mubritinib -0.063

HNRNPUL1 (UniProt M0R247)
inactive: nilotinib 0.061 | [2] -0.13 | dasatinib 0.206 | [3] 0.025 | [1] -0.024 | tipifarnib 0.259

HPF1 (UniProt Q9NWY4)
inactive: dasatinib -0.115

HSBP1 (UniProt O75506)
inactive: bafetinib -0.229 | nilotinib 0.437 | [2] -0.143 | [3] -0.04

From the supplement of paper PMC10849652
